Source: the supplement of paper PMC5949888
Most values lie at the floor of the assay. Slopes are relative: functional sequences can read slightly below zero.

Each substance was assayed on Saccharomyces cerevisiae PS128 hsf1 delta, HSF1(1-493) fusion (assay: growth estimate (transactivation domain function in HSF1 fusion, heat-shock survival) (a.u. (slope of normalised read count over time)); higher = stronger growth at 37°C, i.e. more transactivation activity). Details: library: random library.
Protocol: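 Random 60-nt DNA library encoding peptides of up to 20 aa, fused to the C-terminus of yeast HSF1 residues 1-493 (C-terminal TAD deleted) and expressed from the native HSF1 promoter on a CEN plasmid in hsf1-deleted S. cerevisiae PS128. Cells were selected at 37°C on -trp 5-FOA plates for 0, 2, 4, 6 and 8 days and amplicons were sequenced. Growth estimate is the slope of a robust linear fit of total-sum-normalised read counts (normalised to the first time point) over time, using at least 2 replicates. Sequences are classed functional (TAD activity) above a threshold of -0.13, set from stop-codon control sequences.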

| Substance | growth estimate |
| --- | --- |
| CRQLLPLGQVSRSLLRTFAR | < -0.25 |
| CRQY | < -0.25 |
| CRRAPWAARLCGGIRSSG | < -0.25 |
| CRRFDALGFDW | -0.0054 |
| CRS | < -0.25 |
| CRSCMPRDYRLWGHANILPC | < -0.25 |
| CRSKIIKAGVMFGDV | < -0.25 |
| CRSPPASGPT | < -0.25 |
| CRTFSQSGYIITMYSEKKES | < -0.25 |
| CRTKCNSLDWTTAAVSGVHH | < -0.25 |
| CRVADSQNLFDEKVGLLGYC | < -0.25 |
| CRVAEAS | < -0.25 |
| CRVMRGVSTAVRSRYSCLVS | < -0.25 |
| CRVWTGRGIYLR | < -0.25 |
| CRYIFLVAFVVKCTAM | < -0.25 |
| CSAFFLG | < -0.25 |
| CSASCS | < -0.25 |
| CSDTHIYGNWRTPSVACVNL | < -0.25 |
| CSEASPLLCCVYSLGLLKRE | < -0.25 |
| CSEVLELVYR | < -0.25 |
| CSEYPMSTSLEAPVG | < -0.25 |
| CSFQGDCQGM | < -0.25 |
| CSG | < -0.25 |
| CSGCGLIEWRGN | < -0.25 |

Random excerpt: two records from the list

| Substance | growth estimate |
| --- | --- |
| CSEVLELVYR | < -0.25 |
| CSDTHIYGNWRTPSVACVNL | < -0.25 |

The listing continues.

| Substance | growth estimate |
| --- | --- |
| CSHFLIQQILDTAS | < -0.25 |
| CSHFWSETTQLV | < -0.25 |
| CSHPVSVNEYPGPRVNVGAP | < -0.25 |
| CSIEYSPIRARCPLRSMPPP | < -0.25 |
| CSLARRVIQSIVPYITYLKC | < -0.25 |
| CSLQ | < -0.25 |
| CSLQA | < -0.25 |
| CSPGYALIV | < -0.25 |
| CSPRTGRPTWGTHPRTYPRH | < -0.25 |
| CSPVTARTPSVWERVHRGTW | < -0.25 |
| CSRSPSVLGHAGRAEKLEIG | -0.24 |
| CSRTELPRQERGRW | -0.217 |
| CSRVLRWYVSVEDRGCYKCL | < -0.25 |
| CSSCILASLRERFVTYQ | < -0.25 |
| CSSEVSEINVEYFSRLD | 0.0485 |
| CSSHKQTGR | < -0.25 |
| CSTIMPFVRGRRGLGSVC | < -0.25 |
| CSVRAREKVRLDLSPLMTSD | < -0.25 |
| CSVSMHYALIQASETSGLQV | < -0.25 |
| CSVYQQAEARWHVGC | < -0.25 |
| CTG | < -0.25 |
| CTLEDRVGFRNASMSGTPSL | < -0.25 |
| CTLNLKSTTGNAVRTTVVFQ | < -0.25 |
| CTNKHRRS | < -0.25 |

| Substance | growth estimate |
| --- | --- |
| CTPDKIGHGGHSVSRVRKLT | < -0.25 |
| CTPFLIMRGTNPSSRG | < -0.25 |
| CTPGGCGHHFYPSFHRRPLP | < -0.25 |
| CTPSIFVRRLD | < -0.25 |
| CTPTVRKPRPNCQVGLSIPR | < -0.25 |
| CTRAGHSSIGLLFLLSTTET | < -0.25 |
| CTRRGTNQVGGRVPGPAGGL | < -0.25 |
| CTRVKLSQSQGLTPTGLQGT | < -0.25 |
| CTRVRGTRLSNVNEVSAISL | < -0.25 |
| CTSRLHQAMCRRL | < -0.25 |
| CTVG | < -0.25 |
| CVC | < -0.25 |
| CVDDLGSSETSRNLYAGIDQ | < -0.25 |
| CVDINVTVSTPICWFLWLDA | < -0.25 |
| CVEHSYPVKQFHQLGICFGT | < -0.25 |
| CVFWELGVRLASSQTYAMDP | < -0.25 |
| CVG | < -0.25 |
| CVHSPHECIGTVLVIRHRA | < -0.25 |
| CVIAPNGETL | < -0.25 |
| CVKVEPGKWTKPADSERKVG | < -0.25 |
| CVKVLTLT | < -0.25 |
| CVLRHFAPLCVRSQEGPTLV | < -0.25 |
| CVLRV | -0.243 |
| CVLTVDWIQSGPLMSNLSYV | < -0.25 |

| Substance | growth estimate |
| --- | --- |
| CVQGCPPLPGSWAAI | < -0.25 |
| CVSDAG | < -0.25 |
| CVSRRRLTAFERPAAPCKSL | < -0.25 |
| CVSY | < -0.25 |
| CVTIKGQVAAPSAVIAPG | < -0.25 |
| CVTLCMLPVDYIRPPTNIRD | < -0.25 |
| CVTNRFRACTVVGMVQWGTS | < -0.25 |
| CWDKRNGQLRVDQPYYLG | < -0.25 |
| CWGVTRGEPRPDRVRDEKRA | < -0.25 |
| CWIMRATPEDVQRRSQSPEC | < -0.25 |
| CWLKRATELCGEFAFCPSEF | < -0.25 |
| CWNKHVGVVTQLEVQEGQTR | < -0.25 |
| CWVGLSWASK | < -0.25 |
| CWVKIPGEDLRKGYADIETV | -0.246 |
| CYAGKLVFISWGFINENQSR | < -0.25 |
| CYASSTFNKQQVLRLPTGA | < -0.25 |
| CYFQHVDYEY | < -0.25 |
| CYGT | < -0.25 |
| CYGYDGSGHEPKWPSETGLS | < -0.25 |
| CYHGN | < -0.25 |
| CYKLTDFKLKDKEASIDT | < -0.25 |
| CYLHLRPVSGPSDAPRACGG | < -0.25 |
| CYRDENEPGS | < -0.25 |
